Measurements taken from patent publication US20130336977A1.
No constants are given. Whether binding was seen depends on the method and setting. Some entries that bind do so weakly or less than the wild type.

Amino acid sequences for entries named in this document (tags omitted). Residues count along the entry.
UniProt P10747, residues 19-220: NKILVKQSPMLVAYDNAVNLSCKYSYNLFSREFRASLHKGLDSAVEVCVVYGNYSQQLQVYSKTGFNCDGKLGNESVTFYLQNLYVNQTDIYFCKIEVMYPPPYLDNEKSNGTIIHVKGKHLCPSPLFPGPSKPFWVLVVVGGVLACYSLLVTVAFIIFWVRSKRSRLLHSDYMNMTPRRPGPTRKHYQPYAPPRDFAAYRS

Target: CD28 (UniProt P10747)
Experiment: flow cytometry on CD28 CHO cells, protein A purified protein at 5 µg/ml

binding: binds
B1: 2e12 VHVL SMIP (Fc fusion, not shown: a dimerising Fc or GST)
chain: VQVQLKESGPGLVAPSQSLSITCTVSGFSLTGYGVNWVRQPPGKGLEWLGMIWGDGSTDYNSALKSRLSITKDNSKSQVFLKMNSLQTDDTARYYCARDGYSNFHYYVMDYWGQGTSVTVSSGGGGSGGGGSGGGGSGGGGSDIVLTQSPASLAVSLGQRATISCRASESVEYYVTSLMQWYQQKPGQPPKLLISAASNVESGVPARFSGSGSGTDFSLNIHPVEEDDIAMYFCQQSRKVPWTFGGGTKLEIKR
